Consider one sequence from publication PMC8384837.

Numbering of substitutions follows the chain as printed. Some of the results follow.

What all share (details): yeast three-hybrid, YBZ-1, SC-Leu-His + 0.5 mM 3-AT, 4 days
Test [1] concerns the target T1, PUM1 PUF domain R5-AAR C1007A + R1008A + Q1011R (Homo sapiens) (UniProt Q14671).
T1 sequence: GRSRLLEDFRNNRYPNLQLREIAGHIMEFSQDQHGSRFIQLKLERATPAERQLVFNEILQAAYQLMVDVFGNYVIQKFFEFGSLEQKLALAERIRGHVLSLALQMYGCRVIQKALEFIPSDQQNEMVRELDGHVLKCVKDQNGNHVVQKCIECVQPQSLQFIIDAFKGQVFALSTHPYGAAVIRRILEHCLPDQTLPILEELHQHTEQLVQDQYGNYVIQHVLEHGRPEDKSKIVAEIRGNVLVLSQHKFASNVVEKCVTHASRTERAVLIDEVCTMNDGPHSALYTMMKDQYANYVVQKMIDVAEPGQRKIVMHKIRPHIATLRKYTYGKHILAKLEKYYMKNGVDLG

Test [2] addresses T2, PUM1 PUF domain R5-FHK C1007F + R1008H + Q1011K (Homo sapiens) (UniProt Q14671).
T2 sequence: T1 sequence with A180F, A181H, R184K

Test [3] deals with T3, PUM1 PUF domain R5-GTR C1007G + R1008T + Q1011R (Homo sapiens) (UniProt Q14671).
T3 sequence: T1 sequence with A180G, A181T

Test [4] deals with T4, PUM1 PUF domain R5-KQG C1007K + R1008Q + Q1011G (Homo sapiens) (UniProt Q14671).
T4 sequence: T1 sequence with A180K, A181Q, R184G

In test [5] the target is T5, PUM1 PUF domain R5-KRA C1007K + Q1011A (Homo sapiens) (UniProt Q14671).
T5 sequence: T1 sequence with A180K, A181R, R184A

Test [6] deals with T6, PUM1 PUF domain R5-KSR C1007K + R1008S + Q1011R (Homo sapiens) (UniProt Q14671).
T6 sequence: T1 sequence with A180K, A181S

Test [7] concerns the target T7, PUM1 PUF domain R5-KSV C1007K + R1008S + Q1011V (Homo sapiens) (UniProt Q14671).
T7 sequence: T1 sequence with A180K, A181S, R184V

Test [8] addresses T8, PUM1 PUF domain R5-LNS C1007L + R1008N + Q1011S (Homo sapiens) (UniProt Q14671).
T8 sequence: T1 sequence with A180L, A181N, R184S

Test [9] has as its target T9, PUM1 PUF domain R5-MKR C1007M + R1008K + Q1011R (Homo sapiens) (UniProt Q14671).
T9 sequence: T1 sequence with A180M, A181K

The target in test [10] is T10, PUM1 PUF domain R5-NAG C1007N + R1008A + Q1011G (Homo sapiens) (UniProt Q14671).
T10 sequence: T1 sequence with A180N, R184G

Test [11] deals with T11, PUM1 PUF domain R5-NAV C1007N + R1008A + Q1011V (Homo sapiens) (UniProt Q14671).
T11 sequence: T1 sequence with A180N, R184V

Test [12] deals with T12, PUM1 PUF domain R5-RAM C1007R + R1008A + Q1011M (Homo sapiens) (UniProt Q14671).
T12 sequence: T1 sequence with A180R, R184M

Test [13] has as its target T13, PUM1 PUF domain R5-RAP C1007R + R1008A + Q1011P (Homo sapiens) (UniProt Q14671).
T13 sequence: T1 sequence with A180R, R184P

Test [14] deals with T14, PUM1 PUF domain R5-RKD C1007R + R1008K + Q1011D (Homo sapiens) (UniProt Q14671).
T14 sequence: T1 sequence with A180R, A181K, R184D

Test [15] deals with T15, PUM1 PUF domain R5-RKE C1007R + R1008K + Q1011E (Homo sapiens) (UniProt Q14671).
T15 sequence: T1 sequence with A180R, A181K, R184E

The target of test [16] is T16, PUM1 PUF domain R5-RMW C1007R + R1008M + Q1011W (Homo sapiens) (UniProt Q14671).
T16 sequence: T1 sequence with A180R, A181M, R184W

For test [17], the target named is T17, PUM1 PUF domain R5-RNA C1007R + R1008N + Q1011A (Homo sapiens) (UniProt Q14671).
T17 sequence: T1 sequence with A180R, A181N, R184A

Test [18] addresses T18, PUM1 PUF domain R5-RSS C1007R + R1008S + Q1011S (Homo sapiens) (UniProt Q14671).
T18 sequence: T1 sequence with A180R, A181S, R184S

In test [19] the target is T19, PUM1 PUF domain R5-RST C1007R + R1008S + Q1011T (Homo sapiens) (UniProt Q14671).
T19 sequence: T1 sequence with A180R, A181S, R184T

The target in test [20] is T20, PUM1 PUF domain R5-SNN C1007S + R1008N + Q1011N (Homo sapiens) (UniProt Q14671).
T20 sequence: T1 sequence with A180S, A181N, R184N

For the sequence “GGCUAGAACUAGUGGAUCCCCCGGCGCCCGGCGGCUCGAGCCCGGGUAAGUGUAAAUAGUCUGCAUGCCGCCGGGCGCCAUGCCUGCAGGUCGACUCUAGAAAACAUG”, the binding signal (log2 enrichment (interaction score)) is -1.2 in test [1]; -1.26 in test [2]; -1.82 in test [3]; -1.36 in [4]; -1.58 in test [5]; -1.31 in test [6]. Besides, the binding signal (log2 enrichment (interaction score)) in test [7] is -1.38; in test [8], -1.13; in [9] it was -1.21; in test [10] it was -1.45; in [11], -1.34; in test [12], -1.38. The binding signal (log2 enrichment (interaction score)) in test [13] is -1.4; in test [14], -1.43; in test [15] it was -2.22; in test [16] it was -1.26; in [17] it was -1.35; in [18], -1.31. In addition, the binding signal (log2 enrichment (interaction score)) in test [19] was -1.41; in test [20] it was -1.19.
